According to the supplement of paper PMC3334620:
In all, about 33,000 sequences were measured (“E-score (-0.5 to 0.5)”: median about -0.0034, highest 2% from about 0.25 on). This is one part of the list.

What follows are sequences tested against T1, Yap3 (UniProt P38749) (assay: PBM E-score (8-mer binding enrichment) (E-score (-0.5 to 0.5)); higher = stronger / more preferred TF binding). Settings: protein concentration: 100 nM; construct: GST-full length.
T1 sequence: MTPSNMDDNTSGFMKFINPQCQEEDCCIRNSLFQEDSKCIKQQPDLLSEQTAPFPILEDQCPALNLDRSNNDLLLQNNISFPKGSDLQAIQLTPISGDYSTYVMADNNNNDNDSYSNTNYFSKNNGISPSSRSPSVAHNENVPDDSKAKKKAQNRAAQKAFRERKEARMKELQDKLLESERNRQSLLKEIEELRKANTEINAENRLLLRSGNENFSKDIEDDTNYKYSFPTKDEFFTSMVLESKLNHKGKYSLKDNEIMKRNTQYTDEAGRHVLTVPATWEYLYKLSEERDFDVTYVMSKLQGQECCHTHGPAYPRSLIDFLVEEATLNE
How it was run: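 Universal all-10-mer Agilent arrays, double-stranded by primer extension on fresh or once-stripped slides, were probed with about 100-200 nM GST-tagged yeast transcription factors made by PURExpress. Fluorescent anti-GST detected bound protein, and masliner normalised the scans. E-scores from the Universal PBM Analysis Suite were given to each ungapped eight-base word pooled with its reverse complement.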

| Sequence | PBM E-score |
| --- | --- |
| AACTTAAA | 0.12 |
| ATACTACA | 0.28 |
| ATTGGCCC | -0.361 |
| CCGCGGAC | -0.195 |
| AACACTGT | 0.0465 |
| AATGAGAG | -0.0586 |
| CAGTAAAG | 0.0758 |
| CGCAGAAA | 0.0726 |
| GGTAGTGA | -0.0469 |
| GGACGACA | 0.124 |
| AACGTTTC | 0.0776 |
| CTCTTACC | 0.0816 |
| TCGTCTCA | -0.042 |
| CCCCCGCG | -0.254 |
| CAGCAAAA | 0.0978 |
| GCATTCGA | 0.145 |
| CTCCTCTA | -0.14 |
| AAAGCTAC | -0.081 |
| CACCAACG | -0.0927 |
| AGTCAGTG | -0.00717 |
| AGGAAACC | -0.101 |
| ACACGGGG | -0.139 |
| GACGGAAA | 0.212 |
| CTTGCCCA | -0.0745 |
| CCGTAAAA | -0.00748 |

Exported tab-delimited: entries from further up
Sequence	PBM E-score
AATGAGAG	-0.0586
CAGTAAAG	0.0758
CGCAGAAA	0.0726
GGTAGTGA	-0.0469

(listing goes on)

| Sequence | PBM E-score |
| --- | --- |
| GGGTAAAA | 0.258 |
| AAATTTCG | 0.0725 |
| AGCAGCCT | -0.17 |
| GGCCCCCC | -0.461 |
| GAAATAGA | 0.0646 |
| GAAGTACC | -0.0826 |
| GTCTCGCA | -0.0565 |
| CAGTCGTA | -0.0883 |
| AATATCAG | 0.121 |
| ACTATAGT | 0.226 |
| GTTCGCAA | 0.166 |
| CTGCGGCC | -0.188 |
| CTGCGGGC | -0.235 |
| CCGATGTA | -0.0164 |
| CTTCTACC | -0.0153 |
| ATAGCCAC | -0.0162 |
| ACATAGGC | 0.0672 |
| AGACCGTC | -0.195 |
| CCTCCGCG | -0.136 |
| TATAGAAA | 0.0802 |
| AAAGTACC | 0.176 |
| CGCCGGCG | -0.00299 |
| CGCTAGAC | -0.253 |
| CATTAAAG | 0.0898 |
| CTTAAAAC | 0.136 |

| Sequence | PBM E-score |
| --- | --- |
| AATCGGGT | 0.17 |
| ACAACACC | 0.0347 |
| AGTAACGC | -0.0151 |
| AAACATGC | 0.09 |
| ATTAGCTG | 0.0446 |
| AGCGGGGC | -0.188 |
| ACCATACG | 0.0626 |
| AGCGAATG | -0.101 |
| AAGGCCTG | -0.151 |
| GGTTTACA | 0.161 |
| ATCCAAAA | 0.208 |
| GCTTCAGA | -0.0796 |
| CTCATGAG | -0.1 |
| GAACTAGC | 0.0152 |
| CCATAAGA | 0.0674 |
| CTGAAATA | 0.165 |
| AACCTTCC | -0.0911 |
| GCGTCACC | -0.173 |
| CAGAAACG | 0.147 |
| ATCGAAAA | 0.124 |
| CGGGCGCA | -0.12 |
| GATGAAAC | 0.112 |
| AAAGTTTA | 0.168 |
| TAATTACA | 0.232 |
| ACCCGTGA | -0.117 |

| Sequence | PBM E-score |
| --- | --- |
| CACCTTCA | 0.014 |
| AGCCGCTG | -0.169 |
| AAGGAGGT | -0.155 |
| GGGACCCC | -0.334 |
| CTGCTAAC | 0.0329 |
| ACCACACC | -0.111 |
| AGCCGCTC | -0.0187 |
| ATATGCGG | 0.0287 |
| CTCCTCGC | -0.173 |
| AACTCTAG | 0.0326 |
| AGATCCCT | -0.213 |
| AGGTCGGC | -0.191 |
| CAAGTACC | -0.0926 |
| ACGGAGTG | -0.0637 |
| AGCGCCAT | -0.148 |
| CACTGTGC | 0.0315 |
| CACAGGGG | -0.353 |
| AATGACGG | 0.132 |
| AAAATGAG | 0.162 |
| TGCGAACA | 0.0408 |
| ATCGCTAG | -0.0254 |
| GGGGAAGA | -0.135 |
| AGTTGCCA | -0.128 |
| ACCATCCC | 0.0119 |
| ACTCCAAA | -0.0179 |

| Sequence | PBM E-score |
| --- | --- |
| CTTCCCTA | -0.0518 |
| CTGGTAAC | 0.121 |
| CCTGTCGA | -0.0238 |
| AGCTAGGA | -0.0851 |
| AACAGACT | 0.078 |
| AATCTGGG | -0.156 |
| ATAAGCGG | 0.0448 |
| GCACCCAC | 0.106 |
| AAGGGGAA | -0.118 |
| CCCGTACC | -0.0527 |
| ACTAGGAT | -0.0127 |
| ACAGGGGC | -0.137 |
| AGTAGAAG | 0.0935 |
| AAGACAGT | -0.0374 |
| CAGTGGTA | -0.0994 |
| CCCCGAAC | -0.191 |
| CCCCTGAC | -0.178 |
| AGTATTTC | 0.142 |
| TATGTGGA | 0.159 |
| ATGACCGG | 0.0112 |
| GATTCTCC | -0.15 |
| ACTCGAGC | 0.0632 |
| TAGGAGAA | -0.178 |
| AAATCGGT | -0.0628 |
| AAACTCGT | 0.172 |

| Sequence | PBM E-score |
| --- | --- |
| CCCTTCAA | -0.207 |
| GTGGCCGA | -0.0536 |
| AACGATCA | -0.0479 |
| AAACTGAG | -0.0131 |
| CAGTTAGC | -0.145 |
| CACTCAGA | 0.0728 |
| AGCAGGAC | -0.0425 |
| GTGGATTA | 0.129 |
| CTGCTACC | -0.0703 |
| CCATAGTA | 0.0671 |
| AGTGAACG | 0.0345 |
| ATCGTGAC | -0.00843 |
| ATTCTCGA | 0.235 |
| GCTTAGTA | 0.198 |
| CAATTACC | 0.0788 |
| GAGGTTAA | 0.0046 |
| GCCAACCC | -0.212 |
| AGAGGCCC | -0.15 |
| ATTTTATC | 0.235 |
| AGCGATTC | 0.0497 |
| ACTCCTTG | -0.0307 |
| AAATACGA | 0.18 |
| ACGCTACC | -0.206 |
| CAGGAGGC | -0.111 |
| GCCATCGA | 0.0216 |

| Sequence | PBM E-score |
| --- | --- |
| GCAAAAGC | 0.0339 |
| CGGTCGTA | -0.167 |
| ACGAGGCA | -0.0571 |
| CAAGGTAG | -0.142 |
| GGGGTCCA | -0.233 |
| CACGAGGC | 0.0285 |
| CGGCAAAA | 0.0732 |
| CTTTCGCA | -0.0437 |
| ATCTAAAT | 0.172 |
| CTTCGGTC | -0.0297 |
| CGCCGGAG | -0.169 |
| AACTAAAC | 0.138 |
| CGTGTGAG | -0.0579 |
| GAATGATA | 0.295 |
| ACGGCACT | -0.0565 |
| AAAACTCA | 0.218 |
| CATCGACC | -0.00165 |
| AGATGTGA | 0.155 |
| AAGCAATT | 0.0889 |
| GCATTTTA | 0.227 |
| TATGAAGA | 0.237 |
| CCAGTTCG | -0.114 |

Taken from above:
CTTTCGCA | PBM E-score: -0.0437
CACGAGGC | PBM E-score: 0.0285
TATGAAGA | PBM E-score: 0.237
GCATTTTA | PBM E-score: 0.227
GAATGATA | PBM E-score: 0.295
ACGGCACT | PBM E-score: -0.0565
GGGGTCCA | PBM E-score: -0.233
